Measured values taken from PMC10564139.

What was measured:
[1] = target: T1, 6XHis-TCP4 (Arabidopsis thaliana) (UniProt Q8LPR5); test: EMSA; details: self competition at 10x and 25x; 20 mM HEPES-KOH pH 7.8, 100 mM KCl, 1 mM EDTA, 0.1% BSA, 10 ng herring sperm DNA, 10% glycerol, 0.05 uM probe, room temperature 30-40 min; 9% native gel, 0.5X TBE; protein in a lysate after overexpression; protein details: 6xHis; label: 32P 5' end
T1 sequence (looked up, limits assumed): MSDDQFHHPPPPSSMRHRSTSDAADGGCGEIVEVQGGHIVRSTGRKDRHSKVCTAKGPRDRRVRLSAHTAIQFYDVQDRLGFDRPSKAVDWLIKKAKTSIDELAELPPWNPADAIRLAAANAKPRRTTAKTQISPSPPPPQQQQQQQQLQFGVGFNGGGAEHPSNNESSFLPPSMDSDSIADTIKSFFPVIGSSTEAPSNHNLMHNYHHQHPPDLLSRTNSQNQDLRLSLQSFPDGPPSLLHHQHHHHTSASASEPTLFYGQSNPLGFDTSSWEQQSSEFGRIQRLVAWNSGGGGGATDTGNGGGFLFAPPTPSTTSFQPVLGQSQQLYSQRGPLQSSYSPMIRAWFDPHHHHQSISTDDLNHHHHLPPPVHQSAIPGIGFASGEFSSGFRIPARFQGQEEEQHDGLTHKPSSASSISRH

[2] = target: T1, 6XHis-TCP4 (Arabidopsis thaliana); test: competition with a labelled probe; details: unlabeled mCP, 10x or 25x excess; 20 mM HEPES-KOH pH 7.8, 100 mM KCl, 1 mM EDTA, 0.1% BSA, 10 ng herring sperm DNA, 10% glycerol, 0.05 uM probe, room temperature 30-40 min; 9% native gel, 0.5X TBE; protein in a lysate after overexpression; protein details: 6xHis

Sequence | binding result [1] | binding result [2]
ATAAGTGTGTGTGGCCCTTCATTGTTTC (double strand) [BS4] | binds | –
TGAATAGTTCTTTGTTCAAAGCTTGTAT (double strand) [mBS2] | – | no binding
CTAGTTGTTGATGGCCCATTTAAAGCAA (double strand) [BS3] | binds | –
GAATATAAGCATGGTCCATGCTCAAAAA (double strand) [BS1] | binds | –
TGAATAGTTCTTGGTCCAAAGCTTGTAT (double strand) [BS2] | binds | –
GAATATAAGCATTGTTCATGCTCAAAAA (double strand) [mBS1] | – | no binding
CTAGTTGTTGATTGCACATTTAAAGCAA (double strand) [mBS3] | – | no binding
ATAAGTGTGTGTTGCACTTCATTGTTTC (double strand) [mBS4] | – | no binding

Construct, isoform or probe ends are uncertain for at least one entry. Results from cells or extracts need not show a direct contact. For some assays here: A negative result means that nothing was seen under these conditions. For some assays here: At least one verdict rests on a figure or table, not on a statement of the authors. Protein sequences can lack the tags named with them.
